These are yes or no findings as the source states them, for the method shown. In cells and extracts the contact can be indirect. These calls come from enrichment with a bait or labelling near it, and not all partners need be listed.
Target: prolyl 4-hydroxylase subunit beta (P4HB), endogenous (mouse (endogenous in GA muscle and C2C12)) (UniProt P09103)
Assay: affinity purification with mass spectrometry; proteins extracted from GA muscle of YES2-bearing mice, Protein A/G Sepharose beads with anti-P4HB antibody, SDS-PAGE, silver staining, differential band by LC-MS/MS

Chains of the proteins cited; added tags and fusions are not shown. Residues count along the entry.
UniProt P09103, residues 20-509: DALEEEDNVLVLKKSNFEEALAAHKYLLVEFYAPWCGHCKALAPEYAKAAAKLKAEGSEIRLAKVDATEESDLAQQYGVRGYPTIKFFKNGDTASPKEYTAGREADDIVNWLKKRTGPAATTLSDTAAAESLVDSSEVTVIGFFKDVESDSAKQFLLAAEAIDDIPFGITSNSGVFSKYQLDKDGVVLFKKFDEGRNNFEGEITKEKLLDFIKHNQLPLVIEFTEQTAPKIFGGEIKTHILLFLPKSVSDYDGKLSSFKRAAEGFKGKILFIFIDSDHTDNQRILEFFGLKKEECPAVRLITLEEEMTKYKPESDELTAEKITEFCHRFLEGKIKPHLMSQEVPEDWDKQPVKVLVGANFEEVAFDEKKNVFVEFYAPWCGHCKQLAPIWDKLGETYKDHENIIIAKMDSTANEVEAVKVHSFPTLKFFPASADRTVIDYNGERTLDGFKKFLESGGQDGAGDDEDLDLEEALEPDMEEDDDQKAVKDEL

B1: phosphoglycerate dehydrogenase (PHGDH), endogenous (protein, UniProt Q61753 1-533)
chain: MAFANLRKVLISDSLDPCCRKILQDGGLQVVEKQNLSKEELIAELQDCEGLIVRSATKVTADVINAAEKLQVVGRAGTGVDNVDLEAATRKGILVMNTPNGNSLSAAELTCGMIMCLARQIPQATASMKDGKWDRKKFMGTELNGKTLGILGLGRIGREVATRMQSFGMKTVGYDPIISPEVAASFGVQQLPLEEIWPLCDFITVHTPLLPSTTGLLNDSTFAQCKKGVRVVNCARGGIVDEGALLRALQSGQCAGAALDVFTEEPPRDRALVDHENVISCPHLGASTKEAQSRCGEEIAVQFVDMVKGKSLTGVVNAQALTSAFSPHTKPWIGLAEAMGTLMHAWAGSPKGTIQVVTQGTSLKNAGTCLSPAVIVGLLREASKQADVNLVNAKLLVKEAGLNVTTSHNPGVPGEQGSGECLLTVALAGAPYQAVGLVQGTTPMLQMLNGAVFRPEVPLRRGQPLLVFRAQPSDPGMLPTMIGLLAEAGVQLLSYQTSMVSDGEPWHVMGLSSLLPSLETWKQHVLEAFQFCF
- binding: binds

— publication PMC7944388
